Laboratory results as given in article doi:10.1101/2020.11.12.379313.
Results are given in words; binding and its absence hold for the method and conditions named. Binding seen in cells or lysates may run through a third protein. Some results given as binding are weak or reduced against the parent protein; the word gives no strength. Sequences can lack the tags named with a protein.

Biological target: Flag-APP-C99, P05067
Experiment: co-IP
Conditions: remark: other sources report otherwise

B1: human GSAP-16k with HA tag (a.a. 733 to a.a. 854), A4D1B5 733-854 (domain or fragment)
chain: RLMKDLDNTEKNEKLKFSIIVRLPPLIGQKICRLWDHPMSSNIISRNHVTRLLQNYKKQPRNSMINKSSFSVEFLPLNYFIEILTDIESSNQALYPFEGHDNVDAEFVEEAALKHTAMLLGL
binding: binds
